PubChem BioAssay AID720540 (National Center for Advancing Translational Sciences (NCATS), 2013)
Among all 1,300 compounds or so, about 460 (35%) were called active. The shares of active, inactive and inconclusive entries below differ from those in the screen. The call rests on the fitted dose curve; in most records, active means well fitted inhibition curve with a large enough effect; inconclusive means small, poorly fitted or top-dose-only effect; inactive means flat fitted curve, though single readings scatter. Potencies beside an inconclusive call are fits to weak or partial responses and may not hold up.

Amino acid sequences for entries named in this document (tags omitted). A change or cut given only in a name is not applied to a line headed by its entry.
UniProt O00167: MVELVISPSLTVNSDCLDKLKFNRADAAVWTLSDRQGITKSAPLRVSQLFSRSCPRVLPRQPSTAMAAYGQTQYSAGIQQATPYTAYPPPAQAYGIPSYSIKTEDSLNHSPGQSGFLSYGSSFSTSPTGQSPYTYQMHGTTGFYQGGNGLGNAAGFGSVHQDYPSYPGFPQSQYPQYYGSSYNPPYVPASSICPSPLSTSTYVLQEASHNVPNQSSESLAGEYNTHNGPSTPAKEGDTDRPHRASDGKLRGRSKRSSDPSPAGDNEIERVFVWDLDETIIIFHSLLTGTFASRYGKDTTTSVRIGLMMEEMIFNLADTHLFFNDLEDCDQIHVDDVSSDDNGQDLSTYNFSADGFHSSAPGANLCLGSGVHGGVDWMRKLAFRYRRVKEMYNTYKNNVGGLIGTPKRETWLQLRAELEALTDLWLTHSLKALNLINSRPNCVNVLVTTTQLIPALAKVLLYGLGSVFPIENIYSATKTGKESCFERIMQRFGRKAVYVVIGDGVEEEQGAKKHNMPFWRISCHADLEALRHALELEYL

target: Protein phosphatase EYA2 (Homo sapiens) (UniProt O00167); assay: qHTS for Inhibitors of the Phosphatase Activity of Eya2: Confirmatory Assay for Cherry-picked Compounds; conditions: purified EYA2 phosphatase activity, qHTS confirmation; series mostly up to 46.1 µM; further: nearly all actives have a fitted effect of over 65% in size
In short: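 Eya2 (0.2 uM working solution) preincubated 10 min at room temperature with compound in pH 7.5 HEPES buffer with MgCl2, BSA, DTT. OMFP added (50 uM working solution), 10 min more; fluorescence 485/525 nm, normalized to EGTA and DMSO.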
Potency means the concentration at half of the fitted maximal effect.

| Structure (SMILES) | Potency |
| --- | --- |
| O=C(Nc1cccc(-c2nnc(-c3ccco3)o2)c1)c1ccccc1 | inactive |
| Cn1c(-c2cc(Cl)ccc2O)nc2c1c(=O)[nH]c(=O)n2Cc1ccccc1 | inactive |
| O=C(/C=C/c1cccc([N+](=O)[O-])c1)Nc1cccc(NC(=O)c2cccs2)c1 | inconclusive: 16.9 µM [inhibitor, partial curve] |
| CC(=O)Nc1ccc(S(=O)(=O)Nc2cccc3cccnc23)cc1 | active: 4.78 µM |
| Cc1cc(C)cc(COc2ccc3c(C)c(CC(=O)O)c(=O)oc3c2C)c1 | inconclusive: 21.3 µM [inhibitor, partial curve] |
| Cn1c(=O)c2c(ncn2CC(=O)Nc2cccc(S(=O)(=O)Nc3ccccc3F)c2)n(C)c1=O | inconclusive: 8.49 µM [inhibitor, partial curve] |
| CCCCn1c(=O)[nH]c2nc3cc(N)ccc3nc2c1=O | inconclusive: 15.1 µM [inhibitor, partial curve] |
| O=C(Cc1ccc(F)cc1)Oc1ccc(C(=S)N2CCCC2)cc1 | active: 15.1 µM |
| CCC(C)N(C(=O)CSc1nc(-c2cccs2)nc2ccccc12)C1CCS(=O)(=O)C1 (configuration not stated) | inconclusive: 15.1 µM [inhibitor, partial curve] |
| O=C(Cc1cccs1)Nc1ccc2c(c1)C(=O)OC2 | inactive |
| COc1ccc(C=C2SC(=S)N(CCCN3CCOCC3)C2=O)c(OC)c1 | inconclusive: 21.3 µM [inhibitor, partial curve] |
| Cc1cc(-c2ccccc2)c2c3c(cn2n1)c(=O)n(C)c(=O)n3C | inconclusive: 16.9 µM [inhibitor, partial curve] |
| COc1ccc2nc(NC(=S)NC(=O)c3ccco3)sc2c1 | inactive |
| COc1ccc(C2=NN(C(=O)c3ccco3)C(c3cccs3)C2)cc1OC (configuration not stated) | inconclusive: 21.3 µM [inhibitor, partial curve] |
| CNC(=O)c1cc(Nc2nnc(-c3ccc(C)c(S(N)(=O)=O)c3)c3ccccc23)ccc1OC | inconclusive: 16.9 µM [inhibitor, partial curve] |
| COc1cc(CNc2ccc(O)cc2)cc(Br)c1OCc1ccccc1 | inconclusive: 15.1 µM [inhibitor, partial curve, poor fit] |
| O=C(Oc1ccc(C(=S)N2CCOCC2)cc1)c1ccccc1F | active: 6.01 µM |
| CCCCC(Sc1ccc2nnc(-c3ccccn3)n2n1)C(=O)O (configuration not stated) | active: 16.9 µM |
| CC(C)c1ccc(C2c3[nH]c4ccccc4c3C[C@H]3C(=O)N(c4ccccc4C(=O)N4CCC[C@H]4C(=O)O)C(=O)N23)cc1 (some centres not stated) | inconclusive: 19 µM [inhibitor, partial curve] |

| Structure (SMILES) | Potency |
| --- | --- |
| C=CCN(CC=C)S(=O)(=O)c1ccc(C(=O)Nc2nnc(CSC)o2)cc1 | inconclusive: 19 µM [inhibitor, single point] |
| Cc1ccc2[nH]c(=O)c3cc(C(=O)N(CCCOC(C)C)Cc4ccco4)sc3c2c1 | inconclusive: 15.1 µM [inhibitor, partial curve] |
| COc1ccc(N(CC(=O)Nc2cccc(C(C)=O)c2)S(=O)(=O)c2ccc(NC(C)=O)cc2)cc1 | inactive |
| CCOC(=O)Cc1nnc(NC(=O)CSc2nnc3c(n2)[nH]c2ccccc23)s1 | inconclusive: 12 µM [inhibitor, partial curve] |
| CC1=CC(=O)Nc2ncccc2O1 | active: 19 µM |
| N#C/C(=C\c1ccc(OC(=O)c2ccccn2)cc1)C(N)=O | active: 16.9 µM |
| CSCCC(=O)Nc1nc(-c2ccccn2)cs1 | active: 19 µM |
| COc1cc2ncnc(Nc3ccc4c(c3)OCO4)c2cc1OC | inconclusive: 19 µM [inhibitor, partial curve] |
| O=c1[nH]c(=O)n(C2C[C@H](O)[C@@H](CO)O2)cc1C(F)(F)F (some centres not stated) | inactive |
| Cc1onc(-c2ccccc2Cl)c1C(=O)N(Cc1ccc(N(C)C)cc1)C(C)C | inconclusive: 19 µM [inhibitor, single point] |
| COc1cc(CNCc2ccccn2)ccc1OCC(=O)NC1CCCCC1 | inconclusive: 15.1 µM [inhibitor, single point] |
| CCOC(=O)c1ccc(Nc2c(OCC)c(=O)c2=O)cc1 | inconclusive: 19 µM [inhibitor, partial curve] |
| NC(=O)c1c(NC(=O)c2cnccn2)sc2c1CCCC2 | inconclusive: 0.426 µM [inhibitor, full curve] |
| CCCCOC(=O)CCCc1ccc([N+](=O)[O-])cc1[N+](=O)[O-] | inconclusive: 15.1 µM [inhibitor, partial curve] |
| COc1cc(C)c(/C=C/C(C)=C/C=C/C(C)=C/C(=O)O)c(C)c1C | inconclusive: 21.3 µM [inhibitor, single point] |
| Cc1nc(NC(=O)CSc2nnc(-c3ccccc3)c(-c3ccccc3)n2)c(Cl)cc1Cl | inconclusive: 16.9 µM [inhibitor, partial curve] |
| CN(C)c1ccc(-c2ccnc3c2CC(C)(C(=O)Nc2ccc(Cl)c(C(F)(F)F)c2)O3)cc1 (configuration not stated) | inconclusive: 16.9 µM [inhibitor, partial curve] |
| Cn1cc(C(c2ccccn2)c2cn(C)c3ccccc23)c2ccccc21 | inconclusive: 16.9 µM [inhibitor, partial curve] |
| CSc1ccc(/C=N/N2CCN(Cc3ccc(C)cc3C)CC2)cc1 | inconclusive: 15.1 µM [inhibitor, partial curve] |

| Structure (SMILES) | Potency |
| --- | --- |
| CC1=C(/C=C/C(C)=C/C=C/C(C)=C/C(=O)Nc2ccc(O)cc2)C(C)(C)CCC1 | inactive |
| COc1ccc(C)cc1NC(=O)/C=C/c1ccc(OC)c(S(=O)(=O)N2CCOCC2)c1 | inconclusive: 19 µM [inhibitor, partial curve] |
| CCOC(=O)c1cnc(-n2nc(C)cc2C)nc1N(CC)CC | inconclusive: 21.3 µM [inhibitor, partial curve] |
| COc1cccc(/C=N/N2C(=O)CSC2=S)c1O | active: 0.478 µM |
| CC1CCN(CC2C(=O)O[C@@H]3C[C@@]4(C)CCC[C@H](C)C4=C[C@H]23)CC(C)(C)C1 (some centres not stated) | inactive |
| COc1ccc(C(=O)Nc2ccc3c(c2)OCO3)cc1S(=O)(=O)N1CCOCC1 | inconclusive: 21.3 µM [inhibitor, partial curve] |
| Cc1ccc(-c2nn3c(C)nnc3c3ccccc23)cc1S(=O)(=O)NC(C)c1ccccc1 (configuration not stated) | inconclusive: 19 µM [inhibitor, partial curve] |
| CCOc1ccc2[nH]cc(-c3csc(N)n3)c2c1 | inconclusive: 16.9 µM [inhibitor, partial curve] |
| CCN(CC)c1ccc(/C=C/c2c(C)cnc3ccc(C)cc23)cc1 | active: 8.49 µM |
| CC(=O)c1ccc(NS(=O)(=O)c2cccc(C(=O)Nc3ccccc3C(=O)O)c2)cc1 | active: 15.1 µM |
| Cc1cc(NS(=O)(=O)c2ccc(NC(=O)c3cnc(Cl)c(Cl)c3)cc2)nc(C)n1 | active: 2.39 µM |
| Cc1cccc(NC2=C(NCCO)C(=O)c3ccccc3C2=O)c1 | active: 16.9 µM |
| O=C(C[N+]12CN3CN(CN(C3)C1)C2)c1ccc(O)c(O)c1 | inconclusive: 15.1 µM [inhibitor, single point] |
| Cc1ccc(NC(=O)Nc2ccnc(-c3cccnc3)n2)cc1 | inconclusive: 0.601 µM [inhibitor, full curve, poor fit] |
| CCCC(=O)NC(c1ccc(OC)c(OC)c1)c1cc(Cl)c2cccnc2c1O (configuration not stated) | active: 2.69 µM |
| COCc1cc(O)c(O)c(O)c1-c1c(COC)cc(O)c(O)c1O | inactive |
| CC1CCCCC1NC(=O)COC(=O)c1c2c(nc3ccccc13)/C(=C\c1ccco1)CC2 (configuration not stated) | inconclusive: 9.53 µM [inhibitor, partial curve] |
| O=C(C[n+]1ccccc1)c1ccc(O)c(O)c1 | inactive |
| O=C(Cn1c(S(=O)(=O)Cc2ccccc2)nc2ccccc21)N1CCCCC1 | inactive |

Quoted from the listing:
Value for CCN(CC)c1ccc(/C=C/c2c(C)cnc3ccc(C)cc23)cc1 under Potency: active: 8.49 µM
Value for O=C(Cc1cccs1)Nc1ccc2c(c1)C(=O)OC2 under Potency: inactive
